Data published in patent US20220264877A1, “MICROBIOCIDAL PICOLINAMIDE DERIVATIVES” (SYNGENTA CROP PROTECTION AG, priority 2019, published 2022).
Some of these results come from one statement about several compounds together.

Tested on: Magnaporthe grisea (Pyricularia oryzae)
Assay type: in vivo
Conditions: 200 ppm in the formulation; rice leaf segments cv. Ballila, inoculated 2 days after application, assessed 5 to 7 days after application, vs untreated

SMILES	disease control
CC(C)C(=O)OCOc1c(N)ccnc1C(=O)N[C@@H](C)C(=O)OC(C)C(c1ccccc1)c1ccccc1 (stereo partly drawn) [I.y.33, [4-amino-2-[[(1S)-1-methyl-2-(1-methyl-2,2-diphenyl-ethoxy)-2-oxo-ethyl]carbamoyl]-3-pyridyl] oxymethyl 2-methylpropanoate]	at least 80%
CC(C)C(=O)OCOc1c(NC=O)ccnc1C(=O)N[C@@H](C)C(=O)OC(C)C(c1ccccc1)c1ccccc1 (stereo partly drawn) [Compound I.k.33, [4-formamido-2-[[(1S)-1-methyl-2-(1-methyl-2,2-diphenyl-ethoxy)-2-oxo-ethyl]carbamoyl]-3-pyridyl]oxymethyl 2-methylpropanoate]	at least 80%
CC(OC(=O)[C@H](C)NC(=O)c1nccc(NC=O)c1O)C(c1ccc(F)cc1)c1ccc(F)cc1 (stereo partly drawn) [Compound I.a.42, [2,2-bis(4-fluorophenyl)-1-methyl-ethyl] (2S)-2-[(4-formamido-3-hydroxy-pyridine-2-carbonyl)amino] propanoate]	at least 80%
CC(OC(=O)[C@H](C)NC(=O)c1nccc(N)c1O)C(c1ccc(F)cc1)c1ccc(F)cc1 (stereo partly drawn) [I.w.42, [2,2-bis(4-fluorophenyl)-1-methyl-ethyl] (2S)-2-[(4-amino-3-hydroxy-pyridine-2-carbonyl)amino]propanoate]	at least 80%
CC(C)C(=O)OCOc1c(N)ccnc1C(=O)N[C@@H](C)C(=O)OC(C)C(c1ccc(F)cc1)c1ccc(F)cc1 (stereo partly drawn) [I.y.42, [4-amino-2-[[(1S)-2-[2,2-bis(4-fluorophenyl)-1-methyl-ethoxy]-1-methyl-2-oxo-ethyl]carbamoyl]-3-pyridyl]oxymethyl 2-methylpropanoate]	at least 80%
